Results are given in words; binding and its absence hold for the method and conditions named. Some binding calls cover weakened binding; strength is not graded here.

Chains of the proteins cited; added tags and fusions are not shown. Residues count along the entry.
UniProt P05231, residues 30-212: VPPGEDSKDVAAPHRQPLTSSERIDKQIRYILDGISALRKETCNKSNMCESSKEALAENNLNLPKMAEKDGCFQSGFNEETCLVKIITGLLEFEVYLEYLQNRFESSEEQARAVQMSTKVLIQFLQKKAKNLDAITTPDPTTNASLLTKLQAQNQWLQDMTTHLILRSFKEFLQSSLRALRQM

Experiment [1] has as its target T1, recombinant human IL-6 (human, UniProt P05231 30-212, limits assumed).
T1 construct: also called rhIL6; human recombinant IL-6
Nature of the experiment: IC50 ELISA (Table 11). (ELISA stands for enzyme-linked immunosorbent assay.)

Experiment [2] addresses T1, recombinant human IL-6. Nature of the experiment: flow cytometry blocking assay (mean N=3): IL-6 at 500 ng/ml with mAb at 5000 to 39.1 ng/ml, U266 cells bearing IL-6 receptor; cell-bound IL-6 detected with B-F6; readout inhibition percent of IL-6 binding. In general terms: Flow cytometry measures light scatter and fluorescence of single cells or particles in a stream.
The target in experiment [3] is T1, recombinant human IL-6. Nature of the experiment: flow cytometry blocking assay, single experiment: 100 ng/ml IL-6 with or without 0.3 µg/ml mAb, U266 cells bearing IL-6 receptor; FL2-H histograms (dark solid: IL-6 alone; light solid: IL-6 + mAb; dashed: mAb alone).
Experiment [4] has as its target T1, recombinant human IL-6. Nature of the experiment: flow cytometry blocking assay: biotinylated rhIL-6 (12 ng/ml on the sheet; 12.5 ng/ml in paragraph 183) pre-incubated with the mAb, then U266 cells bearing IL-6 receptor added; cell-bound IL-6 shown with streptavidin-PE; readout % inhibition. As for the experimental part: FcR-blocked U266 cells (about 250,000 cells) were then added and co-incubated for another 30 min on ice. […] After washing, the cells were analyzed by flow cytometry.

B1: mAb 286 (antibody, V domains shown)
VH: QVTLKESGPALVKPTQTLTLTCTFSGFSLSTSGMCVSWIRQPPGKALEWLTLIYWDDDKRYSPSLETRLTITKDTSKNQVVLTMTNMDPVDTATYYCARSYDDYLYYALDYWGQGTLVT
VL: DIVMTQSPSSLSASVGDRVTITCRASQTISSYLNWYQQKPGKPPKLLIYAASSLESGVPSRFSGSGSGTEFTLTISSLQPEDLATYYCQQANSFPLTFGGGTKLE
On to B1, for which the binding result in experiment [1] is given as “binds”.

B2: mAb 248 (antibody, V domains shown)
VH: QVTLKESGPTLVKPTQTLTLTCTFSGFSLSTSGVAVGWIRQPPGKALEWLALIFWDDDKHYSPSLKSRLTITKDTSKNQVVLTMTNMDPVDTATYYCARSYDDYLYYALDYWGQGTLVTVSS
VL: DIVMTQSPSSLSASVGDRVTITCRASQTISSYLNWYQQKPGKPPKLLIYAASSLESGVPSRFSGSGSGTEFTLTISSLQPEDLATYYCQQANSFPLTFGGGTKLE
For B2, the binding result in experiment [1] is on record as “binds”.

B3: mAb 242 (antibody, V domains shown)
VH: QVTLKESGPTLVKPTQTLTLTCSFSGFSLSTSGVGVGWVRQPPGKALEWLAFIFWDDDKYYSPSLESRLTITKDTSKNQVVLTMTNMDPVDTATYYCARSYDDYLYYALDYWGQGTLVT
VL: DIVMTQSPSSLSASVGDRVTITCRASQTISSYLNWYQQKPGKPPKLLIYAASSLESGVPSRFSGSGSGTEFTLTISSLQPEDLATYYCQQANSFPLTFGGGTKLE
As to B3, the binding entry in experiment [2], in experiment [3], in experiment [4] and in experiment [1] was “binds” each time.

B4: mAb 181 (antibody, V domains shown)
VH: QVTLKESGPALVKPTQTLTLTCTFSGFSLTTSGMCVSWIRQPPGKALEWLALIYWDDDKRYNPSLRSRLTITKDTSKNQVVLTMTNMDPVDTATYYCARSYDDYLYYALDYWGQGTLVT
VL: DIVMTQSPSSLSASVGDRVTITCRASQTISSYLNWYQQKPGKPPKLLIYAASSLESGVPSRFSGSGSGTEFTLTISSLQPEDLATYYCQQANSFPLTFGGGTKLE
For B4, the binding entry in experiment [1] is recorded as “binds”.

Source of the values: US20080075726A1 (VACCINEX, published 2008).
